# Data reported in publication PMC5413576.
# Protein sequences, listed by entry. Tags and fused reporters are not part of them. Residues count along the entry.
# UniProt Q14BI2, residues 19-872: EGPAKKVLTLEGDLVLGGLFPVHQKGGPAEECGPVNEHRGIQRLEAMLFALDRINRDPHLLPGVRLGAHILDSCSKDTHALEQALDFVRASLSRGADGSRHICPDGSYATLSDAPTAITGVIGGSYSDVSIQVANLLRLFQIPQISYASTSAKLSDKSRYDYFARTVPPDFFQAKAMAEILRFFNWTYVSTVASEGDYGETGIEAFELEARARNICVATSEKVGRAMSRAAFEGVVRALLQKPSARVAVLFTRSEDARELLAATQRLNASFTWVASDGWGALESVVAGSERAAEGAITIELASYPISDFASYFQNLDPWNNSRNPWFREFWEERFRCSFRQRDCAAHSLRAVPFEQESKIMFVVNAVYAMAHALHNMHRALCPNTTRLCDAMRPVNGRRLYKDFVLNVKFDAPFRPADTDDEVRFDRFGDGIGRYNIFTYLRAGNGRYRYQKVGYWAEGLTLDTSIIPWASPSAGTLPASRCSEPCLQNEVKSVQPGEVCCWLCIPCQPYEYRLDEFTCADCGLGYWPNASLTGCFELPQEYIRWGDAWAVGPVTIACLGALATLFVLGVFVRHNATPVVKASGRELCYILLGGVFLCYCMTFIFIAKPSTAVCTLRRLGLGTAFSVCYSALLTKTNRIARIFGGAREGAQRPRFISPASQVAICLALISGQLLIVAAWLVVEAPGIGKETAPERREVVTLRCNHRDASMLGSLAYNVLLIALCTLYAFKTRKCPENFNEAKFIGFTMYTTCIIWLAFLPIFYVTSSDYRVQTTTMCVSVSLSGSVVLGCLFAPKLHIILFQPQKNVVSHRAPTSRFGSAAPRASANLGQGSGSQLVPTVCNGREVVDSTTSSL
# UniProt Q99K10, residues 46-843: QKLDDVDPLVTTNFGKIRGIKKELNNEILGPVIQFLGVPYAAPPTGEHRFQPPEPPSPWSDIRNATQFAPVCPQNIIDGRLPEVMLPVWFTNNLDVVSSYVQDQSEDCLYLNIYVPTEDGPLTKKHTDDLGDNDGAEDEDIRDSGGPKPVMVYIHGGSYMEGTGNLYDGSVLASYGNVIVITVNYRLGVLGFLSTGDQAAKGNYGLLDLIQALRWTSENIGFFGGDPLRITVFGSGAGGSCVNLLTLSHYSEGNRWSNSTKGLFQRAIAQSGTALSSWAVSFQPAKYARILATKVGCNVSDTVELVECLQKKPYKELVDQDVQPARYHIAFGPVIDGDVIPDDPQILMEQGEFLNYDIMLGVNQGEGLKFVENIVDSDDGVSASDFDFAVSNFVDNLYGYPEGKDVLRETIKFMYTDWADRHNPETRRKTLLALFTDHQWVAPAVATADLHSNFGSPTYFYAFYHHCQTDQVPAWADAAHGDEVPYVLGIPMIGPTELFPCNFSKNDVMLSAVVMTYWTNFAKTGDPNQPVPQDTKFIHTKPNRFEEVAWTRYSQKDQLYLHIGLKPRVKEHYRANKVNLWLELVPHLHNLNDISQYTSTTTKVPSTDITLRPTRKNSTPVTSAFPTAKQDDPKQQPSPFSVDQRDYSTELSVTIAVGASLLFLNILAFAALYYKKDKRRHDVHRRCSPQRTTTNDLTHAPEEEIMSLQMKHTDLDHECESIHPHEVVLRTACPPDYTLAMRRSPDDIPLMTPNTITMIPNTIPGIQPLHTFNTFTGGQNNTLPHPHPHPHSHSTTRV
# These are yes or no findings as the source states them, for the method shown. In cells and extracts the contact can be indirect. Some results given as binding are weak or reduced against the parent protein; the word gives no strength.
# Biological target: C-terminally strep-tagged mouse mGluR2 (mouse) (UniProt Q14BI2)
# Experiment: co-IP; lysates of HEK-293 cells co-transfected with HA-tagged NL1 forms and strep-tagged mGluR2, 48 h after transfection; PBS with 1% NP40; IP with anti-streptag (or HA, or mouse IgG as control), protein A/G magnetic beads; blot with anti-HA and anti-streptag
substance,measurement,value
N-terminally HA-tagged mouse NL1-AB (from UniProt Q99K10 46-843),binding,binds
